The assay is described as follows: NCOA3 reporter inhibition potency – cell-based, luminescence, counter-screen for SRC1 inhibitor project, dose response (AID 602234).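 Note: HEK293 cells co-transfected with pGL4.31 reporter and pBIND-SRC3 fusion vector; potency for inhibition of reporter luminescence with Gossypol as full inhibition.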 The note with it: transfected HEK293 cells, counter-screen luciferase reporter.

As to `CN(C)C(=O)c1cccc(COc2ccc(N3C(N)=NC(N)=NC3(C)C)cc2Cl)c1`, the IC50 (commonly the midpoint of a concentration-inhibition curve) is 7.48 µM.

The values above are taken from PubChem BioAssay AID602234 (The Scripps Research Institute Molecular Screening Center, 2012).
